Values from PubChem BioAssay AID1224829 (NIAID, 2016).

- Assay: 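Secondary check of hits that alter LPS-induced p65 translocation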 (follow-up of hits)
- Cell system: mouse RAW264.7 G9 macrophage reporter cells
- Reagent: single siRNA against mouse genes, 100 nM
- Time to read-out: 2 days of siRNA knock-down, then 40 min of LPS before fixing
- Challenge: LPS (Salmonella minnesota R595) at 10 ng/ml
- Measured: 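Imaging of GFP-p65 after 40 min of LPS; nuclear over perinuclear ring intensity ratio, scaled to plate median and non-targeting control wells, given as z-score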
- Scale: p65 translocation z-score: higher = more nuclear NF-kappaB p65 after LPS
- Active means: 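An siRNA is called active when the mean z-score of its two replicates is above 2 or below -2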
- Calls: active = changed p65 translocation (either direction); inactive = no clear change
In all, the deposit lists about 3,800 reagents; shown is a part drawn at random. 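Calls cover raised and lowered translocation; gene median uses one vendor's three siRNAs; qiagen siRNAs acted more weakly than ambion siRNAs.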 The numbers tell different reagents against one gene apart. Further read-outs or replicates are left out here. Reagent sequences are not shown.

target,reagent,siRNA vendor or control pool,"p65 translocation z-score, replicate mean","p65 translocation z-score, replicate 1",activity call
Tmem71,1,ambion single siRNA,2.5,3.27,active
Tmem71,2,ambion single siRNA,-1.97,-0.75,inactive
Tmem71,3,ambion single siRNA,-4.08,-4.32,active
Tmem71,4,qiagen single siRNA,1.83,0.954,inactive
Tmem71,5,qiagen single siRNA,3.85,2.59,active
Tmem71,6,qiagen single siRNA,1.29,-0.334,inactive
Stat4,1,ambion single siRNA,0.831,1.36,inactive
Stat4,2,ambion single siRNA,1.93,2.83,inactive
Stat4,3,ambion single siRNA,-3.85,-4.66,active
Stat4,4,qiagen single siRNA,0.84,0.385,inactive
Stat4,5,qiagen single siRNA,2.94,1.05,active
Stat4,6,qiagen single siRNA,0.443,0.129,inactive
Psmb6,1,ambion single siRNA,0.363,0.0539,inactive
Psmb6,2,ambion single siRNA,-2.53,-2.57,active
Psmb6,3,ambion single siRNA,-0.236,0.131,inactive
Psmb6,4,qiagen single siRNA,-3.06,-2.29,active
Psmb6,5,qiagen single siRNA,0.214,-0.34,inactive
Psmb6,6,qiagen single siRNA,-1.57,-0.555,inactive
Eif6,1,ambion single siRNA,2.83,3.09,active
Eif6,2,ambion single siRNA,4.2,5.07,active
Eif6,3,ambion single siRNA,-1.96,-1.91,inactive
Ctps2,1,ambion single siRNA,-4.15,-3.74,active
Ctps2,2,ambion single siRNA,1.59,1.1,inactive
Ctps2,3,ambion single siRNA,-3.83,-3.83,active
Ctps2,4,qiagen single siRNA,0.974,-1.61,inactive
Ctps2,5,qiagen single siRNA,-0.438,-0.427,inactive
Ctps2,6,qiagen single siRNA,2.12,1.31,active

Next part; the last 3 above are carried over.
target,reagent,siRNA vendor or control pool,"p65 translocation z-score, replicate mean","p65 translocation z-score, replicate 1",activity call
Ctps2,4,qiagen single siRNA,0.974,-1.61,inactive
Ctps2,5,qiagen single siRNA,-0.438,-0.427,inactive
Ctps2,6,qiagen single siRNA,2.12,1.31,active
Klhdc3,1,ambion single siRNA,-0.531,-0.946,inactive
Klhdc3,2,ambion single siRNA,0.266,0.631,inactive
Klhdc3,3,ambion single siRNA,-2.94,-2.95,active
Klhdc3,4,qiagen single siRNA,4.43,2.64,active
Klhdc3,5,qiagen single siRNA,2.49,2.7,active
Klhdc3,6,qiagen single siRNA,1.27,-0.404,inactive
Or2t46,1,ambion single siRNA,-1.95,-1.92,inactive
Or2t46,2,ambion single siRNA,2.8,4.16,active
Or2t46,3,ambion single siRNA,2.54,3.03,active
Or2t46,4,qiagen single siRNA,-0.857,-1.36,inactive
Or2t46,5,qiagen single siRNA,-2.43,-1.28,active
Or2t46,6,qiagen single siRNA,-1.13,-1.67,inactive
S1pr2,1,ambion single siRNA,1.07,2.47,inactive
S1pr2,2,ambion single siRNA,-1.76,-1.93,inactive
S1pr2,3,ambion single siRNA,-2.81,-2.12,active
S1pr2,4,qiagen single siRNA,2.93,2.19,active
S1pr2,5,qiagen single siRNA,-0.833,-1.33,inactive
S1pr2,6,qiagen single siRNA,-3.33,-1.86,active
Hoxd3,1,ambion single siRNA,-0.116,0.558,inactive
Hoxd3,2,ambion single siRNA,-2.29,-2.29,active
Hoxd3,3,ambion single siRNA,-2.93,-3.51,active
Hoxd3,4,qiagen single siRNA,-0.273,-0.847,inactive
Hoxd3,5,qiagen single siRNA,1.27,0.69,inactive
Hoxd3,6,qiagen single siRNA,1.7,3.08,inactive
Pon2,1,ambion single siRNA,0.496,0.48,inactive
Pon2,2,ambion single siRNA,-3.51,-3.6,active
Pon2,3,ambion single siRNA,-3.2,-1.57,active
Pon2,4,qiagen single siRNA,-1.68,-0.378,inactive
Pon2,5,qiagen single siRNA,-0.499,-0.798,inactive
Pon2,6,qiagen single siRNA,-4.36,-3.33,active
Gabra5,1,ambion single siRNA,1.28,1.67,inactive
Gabra5,2,ambion single siRNA,0.576,1.11,inactive
Gabra5,3,ambion single siRNA,-0.92,-1.56,inactive
Gabra5,4,qiagen single siRNA,2.27,1.8,active
Gabra5,5,qiagen single siRNA,0.819,-0.0401,inactive
Gabra5,6,qiagen single siRNA,-0.278,-0.813,inactive
Fbxw11,1,ambion single siRNA,1.38,1.92,inactive
Fbxw11,2,ambion single siRNA,-2.7,-3.4,active
Fbxw11,3,ambion single siRNA,-2.28,-2.86,active
Fbxw11,4,qiagen single siRNA,-0.75,-0.868,inactive
Fbxw11,5,qiagen single siRNA,-1.16,-1.13,inactive
Fbxw11,6,qiagen single siRNA,-6.78,-5.9,active
